This is an account of results in paper PMC8122443.

No constants are given. Whether binding was seen depends on the method and setting.

The target of this experiment is OsWRKY55 (rice (Oryza sativa japonica cv Kitaake)). As to the kind of experiment: two-hybrid; BD-OsWRKY55 (pGBKT7) as bait, AD-OsMPK (pGADT7) as prey, Y2H Gold yeast; growth on SD/-Trp-Leu-His plates containing 0, 0.2 or 0.4 mM 3-AT at 30 °C for 3 days; the bait auto-activates at 0 mM 3-AT.

B1: OsMPK3 (enzyme, UniProt Q10N20 1-369)
chain: MDGAPVAEFRPTMTHGGRYLLYDIFGNKFEVTNKYQPPIMPIGRGAYGIVCSVMNFETREMVAIKKIANAFNNDMDAKRTLREIKLLRHLDHENIIGIRDVIPPPIPQAFNDVYIATELMDTDLHHIIRSNQELSEEHCQYFLYQILRGLKYIHSANVIHRDLKPSNLLLNANCDLKICDFGLARPSSESDMMTEYVVTRWYRAPELLLNSTDYSAAIDVWSVGCIFMELINRQPLFPGRDHMHQMRLITEVIGTPTDDELGFIRNEDARKYMRHLPQYPRRTFASMFPRVQPAALDLIERMLTFNPLQRITVEEALDHPYLERLHDIADEPICLEPFSFDFEQKALNEDQMKQLIFNEAIEMNPNIRY
Take B1: the binding entry is reported as “no binding”.
